US7322965B2, “Infection-resistant medical devices” (priority 2002, dated 2008)
Converted amounts (≈) assume the structure as drawn.

What was measured:
S. aureus UC-20205 = assay: Determination of minimum inhibitory concentration (microdilution); type: cell-based; conditions: Staphylococcus aureus, UC20205, 18 h, read-out: MIC (minimum inhibitory concentration)
S. aureus UC-20206 = assay: as above; type: cell-based; conditions: Staphylococcus aureus, UC20206, 18 h, read-out: MIC (minimum inhibitory concentration)

Structure (SMILES): CN[C@H](CC(C)C)C(=O)N[C@H]1C(=O)N[C@@H](CC(N)=O)C(=O)N[C@H]2C(=O)N[C@H]3C(=O)N[C@H](C(=O)N[C@H](C(=O)O)c4cc(O)cc(O)c4-c4cc3ccc4O)[C@H](O)c3ccc(c(Cl)c3)Oc3cc2cc(c3O[C@@H]2O[C@H](CO)[C@@H](O)[C@H](O)[C@H]2O[C@H]2C[C@](C)(N)[C@H](O)[C@H](C)O2)Oc2ccc(cc2Cl)[C@H]1O [Vancomycin]
- MIC (S. aureus UC-20205): 1 µg/mL (≈ 0.69 µM)
- MIC (S. aureus UC-20206): 1 µg/mL (≈ 0.69 µM)
